# Record: PubChem BioAssay AID1224830 (NIAID, 2016)
# Aim: 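Host factors that control LPS-induced TNF expression in human macrophages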 (primary screen)
# Cell system: human THP-1 monocytic leukaemia cells, TNF dual-luciferase reporter clone, PMA-differentiated to macrophage-like cells
# Knock-down reagent: siRNA pool against human genes, 50 nM
# Duration: LPS for 4 h, given about 3 days after siRNA transfection
# Conditions: bacterial LPS (TLR4 ligand), 10 ng/ml
# Read-out: 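TNF firefly reporter luminescence divided by renilla, normalised to the plate median, then turned into a robust z-score for each replicate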
# Scale: TNF reporter robust z-score: higher = stronger TNF reporter response to LPS
# Rule for the call: 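Each well counts as active if its z-score is over 2.8 or under -1.5; controls are left without a call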
# Here is one part, drawn at random, of about 18,000 reagents tested. In the full data, about 2,900 (16%) were called active. 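Calls are made per well; low scores hint the gene aids the LPS response, high scores that it dampens it.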 Repeated entries: four replicate wells of each siRNA pool.
The first 4 entries, to show the layout:
Target gene,TNF reporter robust z-score,outcome
ITIH6,-0.97,inactive
ITIH6,-0.17,inactive
ITIH6,-0.68,inactive
ITIH6,-0.15,inactive

Results, from the start:
Target gene,TNF reporter robust z-score,outcome
ITIH6,-0.97,inactive
ITIH6,-0.17,inactive
ITIH6,-0.68,inactive
ITIH6,-0.15,inactive
FABP2,0.79,inactive
FABP2,0.36,inactive
FABP2,0.17,inactive
FABP2,0,inactive
PATE2,4.5,active
PATE2,1.03,inactive
PATE2,-0.43,inactive
PATE2,1.67,inactive
LUM,-0.02,inactive
LUM,1.36,inactive
LUM,2.88,active
LUM,2.87,active
TSPYL1,-0.49,inactive
TSPYL1,-0.93,inactive
TSPYL1,-0.64,inactive
TSPYL1,1.2,inactive
LUC7L2,0.48,inactive
LUC7L2,0.36,inactive
LUC7L2,0.08,inactive
LUC7L2,0.63,inactive
TBL1Y,-0.54,inactive
TBL1Y,-0.22,inactive
TBL1Y,-0.27,inactive
TBL1Y,-0.85,inactive
TFEC,0.78,inactive
TFEC,1.12,inactive
TFEC,1.36,inactive
TFEC,-0.01,inactive
OR2L2,0.8,inactive
OR2L2,0.09,inactive
OR2L2,-0.23,inactive
OR2L2,-0.98,inactive
LMBRD1,0.83,inactive
LMBRD1,0.39,inactive
LMBRD1,1.52,inactive
LMBRD1,0.37,inactive
KRTAP5-6,-0.49,inactive
KRTAP5-6,0.36,inactive
KRTAP5-6,-0.03,inactive
KRTAP5-6,0.02,inactive
PPIP5K1,-0.26,inactive
PPIP5K1,-1.32,inactive
PPIP5K1,-0.28,inactive
PPIP5K1,0.77,inactive
FAAP20,0.18,inactive
FAAP20,-0.18,inactive
FAAP20,-0.02,inactive
FAAP20,-0.01,inactive
TMEM200A,-1.13,inactive
TMEM200A,-0.48,inactive
TMEM200A,-0.56,inactive
TMEM200A,0.16,inactive
ING3,-1.17,inactive
ING3,-1,inactive
ING3,0.09,inactive
ING3,-0.51,inactive
PANK4,-2.15,active
PANK4,-2,active
PANK4,-1.95,active
PANK4,-1.7,active
VMA21,3.55,active
VMA21,2.01,inactive
VMA21,-0.57,inactive
VMA21,0.86,inactive
NCOA2,0,inactive
NCOA2,0.43,inactive
NCOA2,-0.32,inactive
NCOA2,-0.04,inactive
ZNF626,0.35,inactive
ZNF626,0.17,inactive
ZNF626,0.13,inactive
ZNF626,0.04,inactive
